From PubChem BioAssay AID1487 (National Center for Advancing Translational Sciences (NCATS), 2009)
The whole screen tested about 200,000 compounds, of which about 25 (0.01%) were called active. Inconclusive means that the source gave no clear call. Such entries were picked first, then a sample of the others. Calls come from the whole dose curve; as a rule, active = well fitted inhibition curve with a large enough effect in the signal ratio, with a control signal flat (not every such curve was filed as active); inconclusive = small, poorly fitted or top-dose-only effect, or effect the other way, or a change in a side signal; inactive = flat fitted curve, though single readings scatter; the % refers to the signal ratio. A potency beside an inconclusive call is a rough fit, not a confirmed value.

Assay: qHTS Assay for Modulators of Lamin A Splicing
Conditions: HeLa LMNA splicing GFP/RFP minigene ratio, 48 h; ratio change, negative = inhibition: at 46.1 µM (top of the series) unless noted
Procedure, shortened: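 S3 HeLa cells stably expressing lamin A-EGFP splicing minigene plus DsRed2, 600 cells/well, 48 h compound exposure at 37C. Laser-scanning cytometry; analysed as GFP (500-530 nm)/RFP (575-640 nm) total intensity ratio; 0.5% DMSO vehicle.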
% is set by controls: 0 for no effect and ±100 for the full control effect; potency is the fitted concentration of half-maximal effect.

Structure (SMILES)	ratio change, negative = inhibition	Potency
COc1ccc(OC)c(NC(=O)CSc2ccnc(=O)[nH]2)c1	inconclusive: 18.2% [at 46 µM]	
O=C1CC(SCCc2nc3ccccc3[nH]2)C(=O)N1c1ccc(Cl)cc1 (stereo unspecified)	inactive: -0.218%	
O=C(CN1CCC(C(=O)c2ccc(F)cc2)CC1)Nc1ccc(F)cc1		inconclusive: 17.8 µM [falling, partial curve]
CN(C)/C=N/c1[nH]ncc1C#N	inconclusive: 9.21% [at 46 µM]	
CCCCc1nc2c(c3c1C[C@H](C)OC3)CN(C(=O)N[C@@H](C)c1ccccc1)CC2	inactive: 9.46% [at 9.22 µM]	
O=C(NC1CCCCC1)C(c1cccs1)N(Cc1cccs1)C(=O)c1ccco1 (stereo unspecified)	inactive: 7.6%	
O=C(Cn1c(=O)nc(-c2ccccc2)c2ccccc21)Nc1ccc(Cl)c(C(F)(F)F)c1	inconclusive: 3.3% [at 46 µM]	
CCSc1sccc1C1C(C#N)=C(N)N(c2cccnc2)C2=C1C(=O)CC(C)(C)C2 (stereo unspecified)	inactive: 11.4%	
O=C(CCCOc1ccc(Cl)cc1)N1CCOCC1	inactive: 2.77%	
Cn1c(=O)c2c(SCC(=O)N3CCc4ccccc43)nc(-c3ccccc3Cl)nc2n(C)c1=O	inconclusive: 9.46% [at 46 µM]	
C=CCN1C(=O)C(Cc2ccc(OC)cc2)S/C1=N/N=C/c1ccco1 (stereo unspecified)	inactive: -6.57%	
O=C(CSc1nnnn1C1CCCC1)Nc1ccc2c(c1)OCO2	inactive: 7.22%	
C/C(=N\NC(=O)C(c1ccccc1)c1ccccc1)c1ccccn1		inconclusive: 6.31 µM [fluorescent, full curve]
Cc1ccc(S(=O)(=O)N2CCCc3cc(NS(=O)(=O)c4ccc(F)c(C)c4)ccc32)cc1	inconclusive: -23.3% [at 46 µM]	
O=C(CSc1ccc2c(c1)OCCO2)Nc1cccc(S(=O)(=O)N2CCCCC2)c1	inconclusive: -33.1%	
Cc1noc(C)c1-c1nccc(Nc2ccc(F)cc2)n1		inconclusive: 15.8 µM [inhibitor, partial curve]
CCOC(=O)c1c(NC(=O)CS(=O)(=O)c2ccc(C)cc2)sc2c1CCCCC2	inactive: -4.57% [at 46 µM]	
COc1ccc(NC(=O)Cn2c(=O)oc3cc(S(=O)(=O)NC4CCCC4)ccc32)cc1OC	inactive: 21.7% [at 46 µM]	
Cc1onc(-c2ccccc2)c1C(=O)N/N=C/c1cc(Br)c(Br)o1		inconclusive: 35.5 µM [falling, single point]
COCCNC(=O)/C(C#N)=C/c1ccccc1Br	inconclusive: -31.5% [at 46 µM]	
Cc1ccc(S(=O)(=O)C(CNC(=O)C(=O)NCc2ccc(Cl)cc2)c2cccs2)cc1 (stereo unspecified)	inactive: 14.9% [at 46 µM]	

Structure (SMILES)	ratio change, negative = inhibition	Potency
COc1cc(/C=N/NC(=O)c2ccc(CSc3nc4ccccc4[nH]3)cc2)ccc1O		inconclusive: 22.4 µM [inhibitor, single point]
CCCCc1ccc(/C=C2/C(=O)ON=C2c2ccccc2)s1	inactive: -11.9%	
COc1ccc(-n2c(=O)cnc3cnc(N4CCOCC4)nc32)cc1	inactive: -7.01%	
CCc1ccccc1NC(=O)Nc1cc(C(=O)NCc2ccc(C)cc2)ccc1N1CCCC1		inconclusive: 8.91 µM [cytotoxic, partial curve]
Cc1nn(Cc2ccccc2)c(C)c1NC(=O)c1cc(-c2cccs2)on1	inconclusive: -42.2%	
S=C(Nc1cccnc1)Nc1ccccc1Br	inconclusive: 12.9% [at 46 µM]	
CCOc1cc(CO)cc(Br)c1OCC(N)=O	inactive: 19.3% [at 46 µM]	
NS(=O)(=O)c1ccc(N2N=C(c3ccccc3)CC2c2cccc(F)c2)cc1 (stereo unspecified)	inconclusive: 3.63%	
O=C(/C=C/c1ccco1)Nc1cccc(-c2nc3ccccc3[nH]2)c1	inconclusive: -29.8%	
CCC1/C(=N\O)CC(c2ccco2)NC1c1ccco1 (stereo unspecified)	inactive: -10.6%	
Cn1cc(C(=O)c2ccc(Cl)cc2Cl)cc1C(=O)N/N=C(\N)COc1ccc(Cl)cc1Cl		inconclusive: 12.6 µM [falling, single point]
C=Cc1ccc(Cn2nc(-c3ccc(C)c(S(=O)(=O)N(CC)CC)c3)ccc2=O)cc1	inactive: 3.73% [at 46 µM]	
COc1ccc2cc(-c3nc4ccc(C(=O)O)cc4[nH]3)c(=O)oc2c1	inconclusive: 31.1% [at 46 µM]	
O=C(NC(=S)Nc1ccc(S(=O)(=O)NC2CCCCC2)cc1)c1cccs1	inconclusive: -30.4%	
Cc1cc(-c2ccccc2)nc2cc(C(=O)N(Cc3ccccc3)Cc3ccccc3)nn12		inconclusive: 35.5 µM [falling, single point]
CC(Sc1nc(-c2ccc(F)cc2)cs1)C(=O)Nc1ccc(Cl)cn1 (stereo unspecified)	inactive: -5.74%	
CCOC(=O)c1c(C)nc2sc(C(=O)Nc3ccc(C(C)=O)cc3)c(N)c2c1-c1ccc(OC)cc1	inconclusive: -10.8%	
CSc1nc(-c2ccccc2)nc(C(Cl)Cl)n1	inconclusive: -16.8%	
CC/C(=N\NC(=O)COc1ccc(Br)cc1)c1ccc(OC)c(OC)c1	inconclusive: -1.86% [at 46 µM]	
CCCn1c2ccccc2c2cnn(CC(=O)N3CCC(C)CC3)c(=O)c21	inconclusive: 5.87% [at 46 µM]	

For convenience, two of the compounds above.
Structure (SMILES)	ratio change, negative = inhibition	Potency
COCCNC(=O)/C(C#N)=C/c1ccccc1Br	inconclusive: -31.5% [at 46 µM]	
Cc1ccc(S(=O)(=O)C(CNC(=O)C(=O)NCc2ccc(Cl)cc2)c2cccs2)cc1 (stereo unspecified)	inactive: 14.9% [at 46 µM]	
